The results in this text go back to publication doi:10.1101/2025.06.01.657323.

Results are given in words; binding and its absence hold for the method and conditions named. In cells and extracts the contact can be indirect. Binding calls can cover weak binding; strength is not graded here.

The target in this assay is Wnt11 (neonatal cardiomyocytes) (rat (endogenous in NRVMs)). Kind of assay: co-IP.

B1: Frizzled 4 (neonatal cardiomyocytes) (receptor, UniProt Q9QZH0 38-538)
chain: FGDEEERRCDPIRIAMCQNLGYNVTKMPNLVGHELQTDAELQLTTFTPLIQYGCSSQLQFFLCSVYVPMCTEKINIPIGPCGGMCLSVKRRCEPVLKEFGFAWPDSLNCSKFPPQNDHNHMCMEGPGDEEVPLPHKTPIQPGEECHSVGTNSDQYIWVKRSLNCVLKCGYDAGLYSRSAKEFTDIWMAVWASLCFISTTFTVLTFLIDSSRFSYPERPIIFLSMCYNIYSIAYIVRLTVGRERISCDFEEAAEPVLIQEGLKNTGCAIIFLLMYFFGMASSIWWVILTLTWFLAAGLKWGHEAIEMHSSYFHIAAWAIPAVKTIVILIMRLVDADELTGLCYVGNQSLDALTGFVVAPLFTYLVIGTLFIAAGLVALFKIRSNLQKDGTKTDKLERLMVKIGVFSVLYTVPATCVIACYFYEISNWALFRYSADDSNMAVEMLKIFMSLLVGITSGMWIWSAKTLHTWQKCSNRLVNSGKVKREKRGNGWVKPGKGNETVV
With B1, the binding entry was “binds”.
